Measurements as given in patent US20130143825A1, “COMPOUNDS FOR USE IN THE TREATMENT OF DISEASES BASED ON THE EXPRESSION OF TOXIC TRANSCRIPTS” (UNIVERSITAT DE VALENCIA, priority 2010, published 2013).
Part of at least one peptide drawing is inferred or uncertain, most often the ends. Non-standard residues stand in square brackets, D forms with d. Residues, ends and D or L forms follow the SMILES beside them.

Experiments:
Mhc-Gal4 CTG(480) flies = experiment: Lack-of-flight phenotype, falling into the cylinder method; format: in vivo, Drosophila; settings: 62.5 μM and 125 μM vs DMSO control
CUG(480) transcripts = experiment: Semi-quantitative RT-PCR of CUG(480) transcripts; format: in vivo, Drosophila; settings: 62.5, 125, 250, 500 μM vs 0.12% DMSO
HSA^LR mice [1] = experiment: Serca1 exon 22 alternative splicing by RT-PCR in DM1 model mice; format: in vivo
2-AP-(CUG)23 RNA = experiment: 2-aminopurine fluorescence assay (hairpin opening); format: biochemical
Experimental: Measurements of the fluorescence emitted (Y-axis), measured as relative fluorescence units (RFU), by 2-aminopurine in a (CUG)23 RNA (1 μM) in the presence of MblZF (0.1 μM, 1 μM, 2 μM and 5 μM) (A) or p10 (0.1 μM, 1 μM, 2 μM, 5 μM and 100 μM) (B), relative to the fluorescence emitted by the free RNA. p10 caused a 2.9-increase in the fluorescence of 2-AP at 100 μM, which indicates a change towards single-stranded. This effect was not observed when incubating the RNA with DMSO, or with the alanine scanning peptides with sequences: ppyawa and payawe (C).
In order to confirm whether said changes cause a loss of the hairpin loop structure, an experiment was performed using an RNA composed of 23 CUG repeats, wherein a guanine had been substituted with its analogue 2-aminopurine (2-AP-(CUG)23). When 2-AP is in a single-stranded environment, it emits fluorescence at 375 nm. […] However, upon increasing the concentration of p10 to 100 μM (RNA:peptide 1:100), the 2AP-(CUG)23 RNA underwent a conformational change, from double-stranded to single-stranded, with a 2.9-fold increase in the fluorescence emission of the molecule (FIG. 28B). In order to confirm the specificity of this effect, the same experiment was performed, incubating the alanine scanning peptides (payawe and ppyawa) with the 2-AP-(CUG)23 RNA at the same concentration as p10 (100 μM). […]

FAM-(CUG)23 RNA = experiment: Fluorescence polarisation assay; format: binding
Text: Amongst the different techniques for the in vitro study of interactions between proteins and nucleic acids, fluorescence polarisation (FP) assays are worth highlighting for their rapidity and sensitivity. This technique is based on the changes in rotational movement of fluorescent molecules in suspension. Thus, when a polarised light beam excites a fluorophore conjugated to a small molecule, the latter undergoes rotational diffusion faster than the time needed for the emission of light, which results in a random arrangement of the molecule at the time of fluorescence emission (depolarisation). However, rotation of the molecule becomes slower when the viscosity of the medium or the molecular volume change, increasing the polarisation of the light emitted. Thus, by measuring the polarisation changes in a molecule, it is possible to detect the binding between the latter and another molecule added to the medium (FIG. 19). In the present invention, these molecules were p10, MblZF and 23 CUG repeats conjugated to the carboxyfluorescein fluorophore (FAM-(CUG)23).
In order to prepare the FP experiment, in the first place two different concentrations of the FAM-(CUG)23 RNA (6 nM and 60 nM) were assayed. […] The interaction observed between MblZF and FAM-(CUG)23 was proportional to the quantity of protein (FIG. 20B). […]

HSA^LR mice [2] = experiment: Muscle fibres with central nuclei, anterior tibial muscle histology; format: in vivo; settings: 0.5 μg and 10 μg i.m.
HSA^LR mice [3] = experiment: Tnnt3 foetal exon F alternative splicing by RT-PCR; format: in vivo; settings: 10 μg i.m.; not precisely quantified
[4] = system: double-stranded (ds) and single-stranded (ss) RNA and DNA; experiment: Gel retardation with other FAM-labelled RNA and DNA sequences; format: binding; settings: p10 1 mM, nucleic acid 60 nM
[5] = system: mouse model for the disease (DM1); experiment: Location of Clcn-1 protein in skeletal muscle sections; format: in vivo, mice; settings: intramuscular injection in the hind extremities
[6] = system: Mhc-Gal4/+;UAS-luciferase/+ flies; experiment: Luciferase reporter expression induced by the Gal4/UAS system; format: in vivo, Drosophila; settings: 250 μM in homemade nutritional medium

C[C@@H](NC(=O)[C@@H](Cc1ccc(O)cc1)NC(=O)[C@H]1CCCN1C(=O)[C@H]1CCCN1)C(=O)N[C@H](Cc1c[nH]c2ccccc12)C(=O)N[C@H](CCC(=O)O)C(=O)O [p10] (H-[dP][dP][dY][dA][dW][dE]-OH)
flight capacity (Mhc-Gal4 CTG(480) flies): No changes | levels of CUG(480) transcripts (CUG(480) transcripts): no significant differences | inclusion of exons 22 (Serca1) and foetal F (Tnnt3) (HSA^LR mice [1]; 0.5 μg i.m., 1, 2 and 4 weeks): did not reveal significant changes | animals in which splicing defects were reverted (HSA^LR mice [1]; 10 μg i.m.): 2 of 5 | increase of inclusion percentage of exon 22 of Serca1 (HSA^LR mice [1]; 10 μg i.m., 1 week p/i, p-value >0.05): 1.3% | increase of inclusion percentage of exon 22 of Serca1 (HSA^LR mice [1]; 10 μg i.m., 2 weeks p/i, p-value <0.05): 25.9% | increase of inclusion percentage of exon 22 of Serca1 (HSA^LR mice [1]; 10 μg i.m., 4 weeks p/i, p-value <0.01): 38.3% | inclusion percentage of exon 22 of Serca1 (HSA^LR mice [1]; left leg (serum with 2% DMSO) of the same p10-treated animal, 4 weeks p/i): 31.5%±9.8 | inclusion percentage of exon 22 of Serca1 (HSA^LR mice [1]; leg injected with 10 μg p10, 4 weeks p/i): 55.1%±4.9 | changes in the fluorescence of 2-AP (2-AP-(CUG)23 RNA; low concentrations, RNA:protein ≦1:5): neither of them caused changes | increase in the fluorescence emission of 2-AP-(CUG)23 (2-AP-(CUG)23 RNA; peptide 100 μM, RNA 1 μM (1:100)): 2.9 fold | ΔmP (increase in polarisation values) (FAM-(CUG)23 RNA; FAM-(CUG)23): 21.75 | polarisation of FAM-(CUG)23 (FAM-(CUG)23 RNA; p-value: 0.0176): slight increase | percentage of cells with central nuclei vs HSA^LR treated with DMSO (HSA^LR mice [2]; more marked 4 weeks after injection): significantly reduced | percentage of cells with central nuclei (HSA^LR mice [2]; FVB mice): did not produce any changes | splicing of Tnnt3 foetal exon F (HSA^LR mice [3]): reverted the splicing defects | binding to ssRNA, ds+ssRNA, dsRNA, dsDNA and DMPK DNA [4]: bound in all cases | Clcn-1 protein at the membrane level [5]: restoration of normal levels of protein at the membrane level | luciferase light emission vs control with DMSO [6]: not significant
